Among the data in publication PMC5554444 (Cancer prevention research (Philadelphia, Pa.), 2011) are Papp A→B values, retold here.

The nature of the data set: Caco-2 cell monolayer permeability. It counts as in vitro ADME. To be noted: human, Caco-2, pH 7.4. (In general: Caco-2 monolayers are a common model of the intestinal barrier.)

`CC(C)NCC(O)COc1cccc2ccccc12` (stereo not shown) [Propranolol, reference compound] displayed a Papp A→B at 10 µM of 27.6 ×10⁻⁶ cm/s.

In general, Papp A→B refers to how fast a substance crosses the layer from the apical side.
